# Assay: Precipitation of Au by L from various aqueous matrices (Table 1)
# Conditions: 1 hour, room temperature
# Procedure: Conditions: 2 mL Au solution contacted with 0.059 g L for 1 hour, room temperature. Solution filtered and diluted 100× in 2% HNO3 prior to ICP-OES analysis. *HAuCl4 used. **Au^0 added to sulfuric acid solution with a few drops of 30% hydrogen peroxide added to aid dissolution of Au. All solutions were diluted 100× prior to ICP-OES analysis.
structure (smiles),measurement,setting,value
CN(CCN(C)C(=O)c1ccccc1)C(=O)c1ccccc1 [L],Au concentration after contact with L,"2 mol L^−1 H2SO4 and 2M NaBr, Au^0 with H2O2, initial Au 1930 mg L^−1, 0.059 g L",9.00 mg/L
same,Au concentration after contact with L,"2 mol L^−1 H2SO4 and 2M NaCl, Au^0 with H2O2, initial Au 1940 mg L^−1, 0.059 g L",12.2 mg/L
same,Au concentration after contact with L,"20% Aqua regia, HAuCl4 used, initial Au 1920 mg L^−1, 0.059 g L",4.00 mg/L
same,Au concentration after contact with L,"100% Aqua regia, HAuCl4 used, initial Au 1920 mg L^−1, 2 mL contacted with 0.059 g L",6.00 mg/L

# Reference: patent US20240368727A1, “METHOD OF SELECTIVE PRECIPITATION OF METALS USING AMIDE COMPOUNDS” (The University Court of the University of Edinburgh, priority 2021, published 2024)
